# Source: article PMC8233366
# Amino acid sequences for entries named in this document (tags omitted).
# UniProt Q96Q15: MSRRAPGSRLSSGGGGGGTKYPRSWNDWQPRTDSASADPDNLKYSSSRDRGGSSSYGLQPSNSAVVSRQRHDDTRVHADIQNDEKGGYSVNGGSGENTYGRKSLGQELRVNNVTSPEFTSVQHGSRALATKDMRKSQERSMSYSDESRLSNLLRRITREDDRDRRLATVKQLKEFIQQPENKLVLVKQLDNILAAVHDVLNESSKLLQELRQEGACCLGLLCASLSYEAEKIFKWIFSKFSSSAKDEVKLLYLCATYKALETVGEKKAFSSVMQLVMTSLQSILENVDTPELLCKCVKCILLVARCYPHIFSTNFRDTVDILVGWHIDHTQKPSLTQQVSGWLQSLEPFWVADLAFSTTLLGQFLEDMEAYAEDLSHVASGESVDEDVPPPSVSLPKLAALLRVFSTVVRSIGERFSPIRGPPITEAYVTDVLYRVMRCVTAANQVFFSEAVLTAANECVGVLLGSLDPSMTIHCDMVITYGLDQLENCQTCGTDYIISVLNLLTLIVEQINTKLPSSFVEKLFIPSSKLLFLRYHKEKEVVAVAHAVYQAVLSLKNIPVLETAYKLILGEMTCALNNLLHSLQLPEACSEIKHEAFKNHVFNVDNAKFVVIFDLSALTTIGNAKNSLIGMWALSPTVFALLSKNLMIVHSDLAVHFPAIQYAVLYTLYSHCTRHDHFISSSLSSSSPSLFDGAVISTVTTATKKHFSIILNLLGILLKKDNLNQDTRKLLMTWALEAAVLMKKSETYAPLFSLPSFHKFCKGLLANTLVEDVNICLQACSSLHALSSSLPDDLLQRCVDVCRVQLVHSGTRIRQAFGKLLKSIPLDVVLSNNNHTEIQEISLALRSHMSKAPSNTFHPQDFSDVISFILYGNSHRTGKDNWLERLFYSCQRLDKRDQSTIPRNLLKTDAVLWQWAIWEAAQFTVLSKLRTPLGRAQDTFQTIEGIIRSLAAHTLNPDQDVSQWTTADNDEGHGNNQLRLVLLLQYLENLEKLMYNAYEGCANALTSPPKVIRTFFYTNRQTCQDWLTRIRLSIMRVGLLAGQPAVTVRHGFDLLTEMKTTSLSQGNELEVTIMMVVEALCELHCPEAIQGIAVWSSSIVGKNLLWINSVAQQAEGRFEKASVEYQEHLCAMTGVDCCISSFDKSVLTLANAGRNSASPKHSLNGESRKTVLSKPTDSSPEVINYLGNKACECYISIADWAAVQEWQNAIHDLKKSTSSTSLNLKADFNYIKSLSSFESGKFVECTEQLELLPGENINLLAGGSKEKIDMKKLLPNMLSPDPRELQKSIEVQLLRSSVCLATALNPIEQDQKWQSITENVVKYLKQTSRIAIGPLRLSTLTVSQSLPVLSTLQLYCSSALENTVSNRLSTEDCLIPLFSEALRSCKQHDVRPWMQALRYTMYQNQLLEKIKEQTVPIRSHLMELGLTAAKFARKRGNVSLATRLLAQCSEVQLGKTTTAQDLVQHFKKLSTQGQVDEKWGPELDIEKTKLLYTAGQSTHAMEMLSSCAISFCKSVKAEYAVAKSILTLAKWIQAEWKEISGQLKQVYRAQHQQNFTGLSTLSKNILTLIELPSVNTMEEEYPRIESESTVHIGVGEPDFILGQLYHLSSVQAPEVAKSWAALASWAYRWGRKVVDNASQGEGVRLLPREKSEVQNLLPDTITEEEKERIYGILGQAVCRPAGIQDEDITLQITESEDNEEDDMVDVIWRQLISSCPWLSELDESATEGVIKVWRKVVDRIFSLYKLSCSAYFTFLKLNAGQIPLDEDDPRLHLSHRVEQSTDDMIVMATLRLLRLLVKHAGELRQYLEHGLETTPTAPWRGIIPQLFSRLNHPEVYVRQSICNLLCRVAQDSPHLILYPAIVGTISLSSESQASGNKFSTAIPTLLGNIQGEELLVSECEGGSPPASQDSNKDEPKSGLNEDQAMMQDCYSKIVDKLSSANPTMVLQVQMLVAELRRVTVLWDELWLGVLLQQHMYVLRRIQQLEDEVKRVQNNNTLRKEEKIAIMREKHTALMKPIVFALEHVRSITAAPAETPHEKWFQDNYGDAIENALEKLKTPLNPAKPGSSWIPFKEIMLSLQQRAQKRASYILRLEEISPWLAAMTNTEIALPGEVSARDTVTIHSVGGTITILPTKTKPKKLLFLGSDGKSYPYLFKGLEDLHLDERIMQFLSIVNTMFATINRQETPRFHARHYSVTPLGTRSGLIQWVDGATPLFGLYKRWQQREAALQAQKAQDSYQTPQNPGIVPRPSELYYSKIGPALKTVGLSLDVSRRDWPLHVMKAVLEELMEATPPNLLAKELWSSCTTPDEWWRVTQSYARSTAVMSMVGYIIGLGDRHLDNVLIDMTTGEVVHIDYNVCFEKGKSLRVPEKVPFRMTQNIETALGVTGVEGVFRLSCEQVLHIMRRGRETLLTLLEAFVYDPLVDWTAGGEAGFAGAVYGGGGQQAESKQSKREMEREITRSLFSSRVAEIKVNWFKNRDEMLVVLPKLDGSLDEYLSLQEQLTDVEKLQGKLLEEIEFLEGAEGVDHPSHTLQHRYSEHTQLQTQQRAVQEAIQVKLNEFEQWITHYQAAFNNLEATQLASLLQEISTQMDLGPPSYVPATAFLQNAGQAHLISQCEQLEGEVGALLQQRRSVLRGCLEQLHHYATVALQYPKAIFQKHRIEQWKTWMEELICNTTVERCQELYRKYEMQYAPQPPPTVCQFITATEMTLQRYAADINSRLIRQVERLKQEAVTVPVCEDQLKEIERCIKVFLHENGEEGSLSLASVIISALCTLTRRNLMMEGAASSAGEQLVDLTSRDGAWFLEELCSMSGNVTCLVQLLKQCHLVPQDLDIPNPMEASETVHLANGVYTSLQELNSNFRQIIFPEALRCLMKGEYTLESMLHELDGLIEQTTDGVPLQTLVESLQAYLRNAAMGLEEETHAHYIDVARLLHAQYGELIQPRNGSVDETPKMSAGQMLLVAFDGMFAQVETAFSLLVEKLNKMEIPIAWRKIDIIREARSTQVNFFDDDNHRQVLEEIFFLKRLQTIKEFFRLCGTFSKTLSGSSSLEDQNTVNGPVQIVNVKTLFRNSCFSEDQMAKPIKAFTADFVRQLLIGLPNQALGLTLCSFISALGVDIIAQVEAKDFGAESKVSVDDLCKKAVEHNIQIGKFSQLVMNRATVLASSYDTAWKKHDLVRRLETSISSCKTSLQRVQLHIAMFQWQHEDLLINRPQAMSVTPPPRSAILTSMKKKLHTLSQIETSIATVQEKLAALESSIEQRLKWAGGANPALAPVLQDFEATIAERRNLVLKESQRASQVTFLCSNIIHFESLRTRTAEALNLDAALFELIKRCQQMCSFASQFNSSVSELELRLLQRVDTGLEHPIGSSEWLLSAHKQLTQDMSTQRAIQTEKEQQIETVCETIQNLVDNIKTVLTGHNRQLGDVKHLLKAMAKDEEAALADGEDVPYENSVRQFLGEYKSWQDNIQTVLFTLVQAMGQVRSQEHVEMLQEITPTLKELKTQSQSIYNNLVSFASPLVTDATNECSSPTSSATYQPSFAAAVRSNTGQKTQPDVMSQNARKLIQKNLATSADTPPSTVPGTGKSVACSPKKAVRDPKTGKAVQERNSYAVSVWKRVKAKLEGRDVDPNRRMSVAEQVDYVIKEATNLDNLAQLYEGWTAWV
# UniProt Q9NPJ4: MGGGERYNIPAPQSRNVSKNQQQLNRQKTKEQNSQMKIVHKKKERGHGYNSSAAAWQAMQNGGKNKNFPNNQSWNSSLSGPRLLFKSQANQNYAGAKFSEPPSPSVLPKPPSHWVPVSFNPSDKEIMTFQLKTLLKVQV
# UniProt O95793: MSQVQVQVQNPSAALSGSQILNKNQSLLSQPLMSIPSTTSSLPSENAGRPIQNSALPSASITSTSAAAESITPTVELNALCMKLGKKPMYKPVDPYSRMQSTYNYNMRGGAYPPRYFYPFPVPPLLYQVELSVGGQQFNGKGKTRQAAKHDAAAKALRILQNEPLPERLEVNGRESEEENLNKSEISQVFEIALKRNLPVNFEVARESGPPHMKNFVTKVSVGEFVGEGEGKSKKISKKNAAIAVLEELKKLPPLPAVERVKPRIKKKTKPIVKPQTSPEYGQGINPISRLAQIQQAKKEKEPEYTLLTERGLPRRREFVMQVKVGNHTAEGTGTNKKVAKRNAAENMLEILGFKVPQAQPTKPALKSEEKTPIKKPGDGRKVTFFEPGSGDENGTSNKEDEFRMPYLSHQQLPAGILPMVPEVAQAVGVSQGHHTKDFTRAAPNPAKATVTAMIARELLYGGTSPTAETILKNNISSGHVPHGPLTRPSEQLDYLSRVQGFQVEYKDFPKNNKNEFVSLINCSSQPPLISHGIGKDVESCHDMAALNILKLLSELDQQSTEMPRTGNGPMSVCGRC
# No constants are given. Whether binding was seen depends on the method and setting. In cells and extracts the contact can be indirect. These calls come from enrichment with a bait or labelling near it, and not all partners need be listed. For part of these data: No binding means not detected with the bait. Where a sequence is shown, tags or fusion partners need not be part of it.
# T1: FLAG-TurboID-UPF1 (UniProt Q92900)
# T1 sequence: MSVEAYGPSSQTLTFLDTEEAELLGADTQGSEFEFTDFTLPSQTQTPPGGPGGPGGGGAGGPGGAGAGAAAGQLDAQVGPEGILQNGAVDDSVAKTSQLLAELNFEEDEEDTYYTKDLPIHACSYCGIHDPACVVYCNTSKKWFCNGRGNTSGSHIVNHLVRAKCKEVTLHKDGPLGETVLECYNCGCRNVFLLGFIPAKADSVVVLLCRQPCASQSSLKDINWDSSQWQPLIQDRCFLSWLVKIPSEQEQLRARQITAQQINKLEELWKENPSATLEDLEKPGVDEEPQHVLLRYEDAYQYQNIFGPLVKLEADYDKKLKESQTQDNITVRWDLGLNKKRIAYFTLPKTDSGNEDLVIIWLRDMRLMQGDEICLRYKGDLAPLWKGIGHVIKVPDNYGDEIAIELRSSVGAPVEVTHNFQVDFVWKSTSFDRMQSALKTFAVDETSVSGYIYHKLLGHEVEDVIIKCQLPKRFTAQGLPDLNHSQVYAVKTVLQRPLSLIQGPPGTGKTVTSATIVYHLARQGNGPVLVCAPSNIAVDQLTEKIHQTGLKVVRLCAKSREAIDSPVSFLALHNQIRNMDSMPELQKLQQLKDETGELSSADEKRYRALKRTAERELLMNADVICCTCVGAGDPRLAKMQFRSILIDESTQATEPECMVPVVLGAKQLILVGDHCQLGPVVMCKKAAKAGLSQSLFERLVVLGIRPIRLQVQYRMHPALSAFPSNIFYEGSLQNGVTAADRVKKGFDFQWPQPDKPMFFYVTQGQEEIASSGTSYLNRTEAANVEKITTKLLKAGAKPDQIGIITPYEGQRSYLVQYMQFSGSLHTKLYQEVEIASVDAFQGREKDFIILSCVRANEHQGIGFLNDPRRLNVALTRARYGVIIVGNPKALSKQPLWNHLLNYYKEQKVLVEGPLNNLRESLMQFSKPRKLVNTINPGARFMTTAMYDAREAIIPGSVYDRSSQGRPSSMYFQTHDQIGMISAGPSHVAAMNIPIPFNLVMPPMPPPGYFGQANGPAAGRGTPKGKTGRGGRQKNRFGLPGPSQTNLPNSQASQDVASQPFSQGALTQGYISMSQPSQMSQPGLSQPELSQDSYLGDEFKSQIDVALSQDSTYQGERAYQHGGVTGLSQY
# T2: FLAG-tagged SMG5 1-853 (human) (UniProt Q9UPR3)
# T2 sequence: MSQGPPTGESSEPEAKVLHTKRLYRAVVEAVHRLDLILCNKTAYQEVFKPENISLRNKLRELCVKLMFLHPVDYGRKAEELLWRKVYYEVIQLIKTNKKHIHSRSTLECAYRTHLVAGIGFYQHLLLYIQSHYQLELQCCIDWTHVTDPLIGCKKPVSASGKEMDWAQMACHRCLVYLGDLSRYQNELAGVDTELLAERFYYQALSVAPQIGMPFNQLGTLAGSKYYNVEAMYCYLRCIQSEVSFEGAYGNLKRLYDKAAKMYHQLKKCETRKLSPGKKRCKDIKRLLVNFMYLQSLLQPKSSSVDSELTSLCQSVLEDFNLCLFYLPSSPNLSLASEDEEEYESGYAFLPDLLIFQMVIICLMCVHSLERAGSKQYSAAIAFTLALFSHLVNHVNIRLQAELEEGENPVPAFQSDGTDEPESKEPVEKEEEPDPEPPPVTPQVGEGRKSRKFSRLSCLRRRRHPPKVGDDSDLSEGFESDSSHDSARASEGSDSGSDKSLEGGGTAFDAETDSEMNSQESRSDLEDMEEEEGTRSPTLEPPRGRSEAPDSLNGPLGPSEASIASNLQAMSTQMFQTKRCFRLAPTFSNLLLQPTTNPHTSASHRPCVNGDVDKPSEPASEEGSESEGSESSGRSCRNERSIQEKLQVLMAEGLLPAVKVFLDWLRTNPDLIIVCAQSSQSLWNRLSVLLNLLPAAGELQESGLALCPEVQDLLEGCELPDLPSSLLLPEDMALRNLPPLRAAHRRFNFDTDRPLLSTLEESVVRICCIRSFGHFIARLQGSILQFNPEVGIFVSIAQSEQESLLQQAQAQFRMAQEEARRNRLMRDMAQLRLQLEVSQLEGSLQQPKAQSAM
# Legend:
# FLAG-TurboID-UPF1 [1] = biological target: T1, FLAG-TurboID-UPF1; assay: proximity labelling; FLAG-TurboID-UPF1 against FLAG-TurboID control in SMG7 KO cells with control or SMG5 KD; 50 µM biotin for 15 min; streptavidin beads; label-free mass spectrometry
# FLAG-TurboID-UPF1 [2] = biological target: T1, FLAG-TurboID-UPF1; assay: proximity labelling; FLAG-TurboID-UPF1 against FLAG-TurboID control in WT cells; 50 µM biotin for 15 min; streptavidin beads; label-free mass spectrometry
# [3] = biological target: T2, FLAG-tagged SMG5 1-853 (human); assay: affinity purification with mass spectrometry; FLAG-tagged SMG5 WT or 1-853 or FLAG control in WT 293 cells, induced 72 h with doxycycline; FLAG IP, mild wash buffer, elution with FLAG peptide; label-free mass spectrometry
Molecule,binding (FLAG-TurboID-UPF1 [1]),binding (FLAG-TurboID-UPF1 [2]),binding [3]
SMG1 (endogenous) (from UniProt Q96Q15 1-3661),binds,no binding (only in WT cells),–
PNRC2 (endogenous) (from UniProt Q9NPJ4 1-139),–,–,no binding
STAU1 (endogenous) (from UniProt O95793 1-577),–,binds,–
"STAU2 (endogenous) (protein, UniProt Q9NUL3 1-570) MANPKEKTAMCLVNELARFNRVQPQYKLLNERGPAHSKMFSVQLSLGEQTWESEGSSIKKAQQAVANKALTESTLPKPVQKPPKSNVNNNPGSITPTVELNGLAMKRGEPAIYRPLDPKPFPNYRANYNFRGMYNQRYHCPVPKIFYVQLTVGNNEFFGEGKTRQAARHNAAMKALQALQNEPIPERSPQNGESGKDVDDDKDANKSEISLVFEIALKRNMPVSFEVIKESGPPHMKSFVTRVSVGEFSAEGEGNSKKLSKKRAATTVLQELKKLPPLPVVEKPKLFFKKRPKTIVKAGPEYGQGMNPISRLAQIQQAKKEKEPDYVLLSERGMPRRREFVMQVKVGNEVATGTGPNKKIAKKNAAEAMLLQLGYKASTNLQDQLEKTGENKGWSGPKPGFPEPTNNTPKGILHLSPDVYQEMEASRHKVISGTTLGYLSPKDMNQPSSSFFSISPTSNSSATIARELLMNGTSSTAEAIGLKGSSPTPPCSPVQPSKQLEYLARIQGFQAALSALKQFSEQGLDPIDGAMNIEKGSLEKQAKHLREKADNNQAPPGSIAQDCKKSNSAV",–,binds,–
"SMG8 (endogenous) (protein, UniProt Q8ND04 1-991) MAGPVSLRDLLMGASAWMGSESPGGSPTEGGGSAAGGPEPPWREDEICVVGIFGKTALRLNSEKFSLVNTVCDRQVFPLFRHQDPGDPGPGIRTEAGAVGEAGGAEDPGAAAGGSVRGSGAVAEGNRTEAGSQDYSLLQAYYSQESKVLYLLLTSICDNSQLLRACRALQSGEAGGGLSLPHAEAHEFWKHQEKLQCLSLLYLFSVCHILLLVHPTCSFDITYDRVFRALDGLRQKVLPLLKTAIKDCPVGKDWKLNCRPCPPRLLFLFQLNGALKVEPPRNQDPAHPDKPKKHSPKRRLQHALEDQIYRIFRKSRVLTNQSINCLFTVPANQAFVYIVPGSQEEDPVGMLLDQLRSHCTVKDPESLLVPAPLSGPRRYQVMRQHSRQQLSFHIDSSSSSSSGQLVDFTLREFLWQHVELVLSKKGFDDSVGRNPQPSHFELPTYQKWISAASKLYEVAIDGKEEDLGSPTGELTSKILSSIKVLEGFLDIDTKFSENRCQKALPMAHSAYQSNLPHNYTMTVHKNQLAQALRVYSQHARGPAFHKYAMQLHEDCYKFWSNGHQLCEERSLTDQHCVHKFHSLPKSGEKPEADRNPPVLYHNSRARSTGACNCGRKQAPRDDPFDIKAANYDFYQLLEEKCCGKLDHINFPVFEPSTPDPAPAKNESSPAPPDSDADKLKEKEPQTQGESTSLSLALSLGQSTDSLGTYPADPQAGGDNPEVHGQVEVKTEKRPNFVDRQASTVEYLPGMLHSNCPKGLLPKFSSWSLVKLGPAKSYNFHTGLDQQGFIPGTNYLMPWDIVIRTRAEDEGDLDTNSWPAPNKAIPGKRSAVVMGRGRRRDDIARAFVGFEYEDSRGRRFMCSGPDKVMKVMGSGPKESALKALNSDMPLYILSSSQGRGLKPHYAQLMRLFVVVPDAPLQIILMPQVQPGPPPCPVFYPEKQEITLPPDGLWVLRFPYAYVTERGPCFPPKENVQLMSYKVLRGVLKAVTQ",binds,no binding (only in WT cells),–
"SMG9 (endogenous) (protein, UniProt Q9H0W8 1-520) MSESGHSQPGLYGIERRRRWKEPGSGGPQNLSGPGGRERDYIAPWERERRDASEETSTSVMQKTPIILSKPPAERSKQPPPPTAPAAPPAPAPLEKPIVLMKPREEGKGPVAVTGASTPEGTAPPPPAAPAPPKGEKEGQRPTQPVYQIQNRGMGTAAPAAMDPVVGQAKLLPPERMKHSIKLVDDQMNWCDSAIEYLLDQTDVLVVGVLGLQGTGKSMVMSLLSANTPEEDQRTYVFRAQSAEMKERGGNQTSGIDFFITQERIVFLDTQPILSPSILDHLINNDRKLPPEYNLPHTYVEMQSLQIAAFLFTVCHVVIVVQDWFTDLSLYRFLQTAEMVKPSTPSPSHESSSSSGSDEGTEYYPHLVFLQNKARREDFCPRKLRQMHLMIDQLMAHSHLRYKGTLSMLQCNVFPGLPPDFLDSEVNLFLVPFMDSEAESENPPRAGPGSSPLFSLLPGYRGHPSFQSLVSKLRSQVMSMARPQLSHTILTEKNWFHYAARIWDGVRKSSALAEYSRLLA",binds,no binding (only in WT cells),–
